From article doi:10.1101/2022.08.12.503154
Results are given in words; binding and its absence hold for the method and conditions named. Binding seen in cells or lysates may run through a third protein. Some entries that bind do so weakly or less than the wild type.

The chains behind the UniProt entries cited, without tags or fusion partners. Where a name states a change or a piece, a line headed by the entry shows the natural chain unless it says otherwise. Residues count along the entry.
UniProt P08195, residues 102-630: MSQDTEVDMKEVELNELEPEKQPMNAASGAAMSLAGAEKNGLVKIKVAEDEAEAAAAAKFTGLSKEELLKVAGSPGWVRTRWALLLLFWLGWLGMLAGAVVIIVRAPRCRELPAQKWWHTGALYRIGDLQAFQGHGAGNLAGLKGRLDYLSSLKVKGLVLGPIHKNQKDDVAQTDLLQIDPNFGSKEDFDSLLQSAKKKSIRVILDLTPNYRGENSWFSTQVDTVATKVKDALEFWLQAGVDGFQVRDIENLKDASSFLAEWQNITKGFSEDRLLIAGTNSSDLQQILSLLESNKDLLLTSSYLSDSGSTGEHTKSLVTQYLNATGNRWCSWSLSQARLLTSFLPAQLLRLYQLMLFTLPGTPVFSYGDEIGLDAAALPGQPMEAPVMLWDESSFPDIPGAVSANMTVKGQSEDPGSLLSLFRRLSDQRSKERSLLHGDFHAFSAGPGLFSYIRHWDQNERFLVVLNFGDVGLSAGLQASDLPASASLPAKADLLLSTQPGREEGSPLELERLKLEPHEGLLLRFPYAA
UniProt P05556: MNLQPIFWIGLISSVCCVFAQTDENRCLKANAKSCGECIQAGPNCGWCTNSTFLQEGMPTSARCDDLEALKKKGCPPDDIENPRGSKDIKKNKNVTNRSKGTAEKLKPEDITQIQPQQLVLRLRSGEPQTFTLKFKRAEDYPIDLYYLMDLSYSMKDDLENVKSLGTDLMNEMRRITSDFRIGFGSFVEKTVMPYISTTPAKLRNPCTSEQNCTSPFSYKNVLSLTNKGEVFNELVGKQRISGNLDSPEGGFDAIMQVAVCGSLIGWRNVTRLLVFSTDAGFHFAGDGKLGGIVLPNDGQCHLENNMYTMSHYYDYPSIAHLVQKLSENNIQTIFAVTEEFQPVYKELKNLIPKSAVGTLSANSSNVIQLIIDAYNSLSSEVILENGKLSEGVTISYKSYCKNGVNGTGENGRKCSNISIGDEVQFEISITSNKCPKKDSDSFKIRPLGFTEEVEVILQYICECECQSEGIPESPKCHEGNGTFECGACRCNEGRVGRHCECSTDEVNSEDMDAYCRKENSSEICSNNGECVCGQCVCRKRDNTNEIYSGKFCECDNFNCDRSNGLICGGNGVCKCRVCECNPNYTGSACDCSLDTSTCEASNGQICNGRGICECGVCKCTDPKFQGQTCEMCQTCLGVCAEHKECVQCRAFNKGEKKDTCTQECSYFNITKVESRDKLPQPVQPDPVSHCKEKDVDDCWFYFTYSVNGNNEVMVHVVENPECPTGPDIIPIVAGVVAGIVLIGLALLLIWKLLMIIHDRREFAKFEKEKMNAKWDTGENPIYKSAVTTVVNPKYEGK

Columns and labels:
[1] = molecular target: galectin-3 (human (endogenous in A549 and human lung tissue)) (UniProt P17931); assay: proximity ligation
[2] = molecular target: galectin-3 (human (endogenous in A549 and human lung tissue)) (UniProt P17931); assay: co-IP
[3] = molecular target: CD98 heavy chain (CD98hc) (human (endogenous in A549 and human lung tissue)) (UniProt P08195); assay: co-IP

Row | Substance | binding [1] | binding [2] | binding [3]
1 | CD98 heavy chain (CD98hc) (from UniProt P08195 1-529) | binds | binds | 
2 | galectin-3 (from UniProt P17931 1-250) |  |  | binds
3 | β1-integrin (from UniProt P05556 21-798) | binds | binds | 
